Consider two molecules from patent US6358738.

The chains behind the UniProt entries cited, without tags or fusion partners. Where a name states a change or a piece, a line headed by the entry shows the natural chain unless it says otherwise.
UniProt Q07832: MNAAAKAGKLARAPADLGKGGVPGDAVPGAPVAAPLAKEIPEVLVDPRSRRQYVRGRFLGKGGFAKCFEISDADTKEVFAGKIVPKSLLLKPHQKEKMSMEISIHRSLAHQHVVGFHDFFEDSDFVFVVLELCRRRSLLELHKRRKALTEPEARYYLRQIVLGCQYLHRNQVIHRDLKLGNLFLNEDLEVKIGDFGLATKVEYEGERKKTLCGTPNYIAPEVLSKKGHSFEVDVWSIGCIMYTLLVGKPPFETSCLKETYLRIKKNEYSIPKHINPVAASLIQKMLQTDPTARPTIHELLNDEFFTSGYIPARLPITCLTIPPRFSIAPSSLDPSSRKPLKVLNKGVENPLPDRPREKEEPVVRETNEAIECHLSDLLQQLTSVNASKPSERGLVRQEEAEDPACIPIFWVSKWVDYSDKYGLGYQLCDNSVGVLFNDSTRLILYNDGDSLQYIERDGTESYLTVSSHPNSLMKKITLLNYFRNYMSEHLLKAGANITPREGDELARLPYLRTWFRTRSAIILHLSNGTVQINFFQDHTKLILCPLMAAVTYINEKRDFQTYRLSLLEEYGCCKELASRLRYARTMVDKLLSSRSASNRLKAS

No constants are given. Whether binding was seen depends on the method and setting. Some entries that bind do so weakly or less than the wild type. Tags and fused reporters may be left off the sequences shown.

Experiment [1] deals with full-length Plk fused to a GAL4 DNA-binding domain (murine (mammalian Plk)). Description: yeast two-hybrid screen, HeLa cDNA library fused to GAL4 activation domain against full-length Plk fused to GAL4 DNA-binding domain.
Experiment [2] addresses HA-Plk (murine (mammalian Plk)) (UniProt Q07832). Nature of the experiment: interaction of recombinant proteins produced in insect cells with baculovirus (GST-fusion).

B1: translationally controlled tumor protein TCTP/p23, clones from HeLa cell cDNA library fused to a GAL4 activation domain (protein, not shown: large carriers)
chain: MIIYRDLISHDEMFSDIYKIREIADGLCLEVEGKMVSRTEGNIDDSLIGGNASAEGPEGEGTESTVITGVDIVMNHHLGETSFTKEAYKKYIKDYMKSIKGKLEEGRPERVKPFMTGAAEGIKHILANFKNYGFFIGENMNPDGMVALLDYREDGVTPYMIFFKDGLEMEKC
B1: the binding entry in experiment [1] was “binds”.

B2: GST-fusion protein of full-length TCTP/p23 (protein, not shown: a dimerising Fc or GST)
chain: MIIYRDLISHDEMFSDIYKIREIADGLCLEVEGKMVSRTEGNIDDSLIGGNASAEGPEGEGTESTVITGVDIVMNHHLGETSFTKEAYKKYIKDYMKSIKGKLEEGRPERVKPFMTGAAEGIKHILANFKNYGFFIGENMNPDGMVALLDYREDGVTPYMIFFKDGLEMEKC
For B2, the binding result in experiment [2] is “binds”.
